Test results taken from the supplement of paper PMC4604168 (melanoma cell lines).
The other results are listed elsewhere or left out. Many values rest on one well or one pass, so single values are uncertain.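 The apoptosis fraction was the count of cleaved-PARP antibody-stained nuclei relative to all DNA-stained nuclei, imaged in 1,536-well plates. Screening doses were set so most cells survived, and baseline and induced cleaved-PARP levels vary greatly across cell lines.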

What was measured:
Experiment in all cases: cleaved PARP positive nuclei fraction relative to DMSO control; melanoma cells; higher = more apoptosis
Details in all cases: library dose: low library concentration; 72 h
MZ2-MEL = system: MZ2-MEL
MeWo = system: MeWo
RPMI7951 = system: RPMI7951
RVH-421 = system: RVH-421
SkMel28 = system: SkMel28
SkMel2 = system: SkMel2
SkMel30 = system: SkMel30
SkMel5 = system: SkMel5
UACC257 = system: UACC257
UACC62 = system: UACC62
WM115 = system: WM115
WM1716 = system: WM1716
WM1745 = system: WM1745
WM3526 = system: WM3526
WM3619 = system: WM3619
WM451Lu = system: WM451Lu

| Structure (SMILES) | cleaved PARP positive nuclei fraction (MZ2-MEL) [%] | cleaved PARP positive nuclei fraction (MeWo) [%] | cleaved PARP positive nuclei fraction (RPMI7951) [%] | cleaved PARP positive nuclei fraction (RVH-421) [%] | cleaved PARP positive nuclei fraction (SkMel28) [%] | cleaved PARP positive nuclei fraction (SkMel2) [%] | cleaved PARP positive nuclei fraction (SkMel30) [%] | cleaved PARP positive nuclei fraction (SkMel5) [%] | cleaved PARP positive nuclei fraction (UACC257) [%] | cleaved PARP positive nuclei fraction (UACC62) [%] | cleaved PARP positive nuclei fraction (WM115) [%] | cleaved PARP positive nuclei fraction (WM1716) [%] | cleaved PARP positive nuclei fraction (WM1745) [%] | cleaved PARP positive nuclei fraction (WM3526) [%] | cleaved PARP positive nuclei fraction (WM3619) [%] | cleaved PARP positive nuclei fraction (WM451Lu) [%] |
| --- | --- | --- | --- | --- | --- | --- | --- | --- | --- | --- | --- | --- | --- | --- | --- | --- |
| O=C(O)c1ccc2c(c1)nc(Nc1cccc(Cl)c1)c1ccncc12 + O=C(O)C(=O)Nc1sc2c(c1C(=O)O)CCNC2 [TCS401] (first compound 0.4 µM, partner dose 1.66667 µM) | 113 | 49.6 | 67.5 | 49.6 | 105 | 79.1 | 21.3 | 71.1 | 139 | 76.2 | 81.9 | 113 | 97.6 | 41.1 | 86.6 | 50.5 |
| C[C@@H](Oc1cc(-c2cnn(C3CCNCC3)c2)cnc1N)c1c(Cl)ccc(F)c1Cl [Crizotinib] + N#Cc1c(O)c2c(-c3ccc(-c4ccccc4O)cc3)csc2[nH]c1=O [A769662] (first compound 0.2 µM, partner dose 2 µM) | 119 | 116 | 55.9 | 222 | 54.7 | 96.7 | 201 | 73.1 | 66.1 | 61.2 | 75 | 57.3 | 90 | 26.9 | 82.2 | 20.4 |
| CN1CCN(c2ccc3nc(-c4c(N)c5c(F)cccc5[nH]c4=O)[nH]c3c2)CC1 [Dovitinib] + CN(NC(=O)CC(=O)NN(C)C(=S)c1ccccc1)C(=S)c1ccccc1 [STA4783] (first compound 0.1 µM, partner dose 0.006 µM) | 43.6 | 105 | 72.1 | 97.9 | 30.4 | 43.6 | 96.7 | 139 | 149 | 282 | 186 | 123 | 154 | 60.9 | 124 | 110 |
| CNC(=O)c1cc(Oc2ccc(NC(=O)Nc3ccc(Cl)c(C(F)(F)F)c3)cc2)ccn1 [sorafenib] + COc1ccc2c(c1)CCC1C2CCC2(C)C(NCCCCCCN3C(=O)C=CC3=O)CCC12 [U73122] (first compound 0.4 µM, partner dose 0.4 µM) | 64.2 | 89.2 | 243 | 101 | 199 | 55 | 66.9 | 92 | 229 | 160 | 276 | 67.6 | 84 | 74.6 | 108 | 34.3 |
| CC(C)C[C@H](NC(=O)[C@H](Cc1ccccc1)NC(=O)c1cnccn1)B(O)O [Bortezomib] + O=C(CCCCCCC(=O)Nc1ccccc1)NO [vorinostat] (first compound 0.001 µM, partner dose 0.08 µM) | 109 | 89.4 | 103 | 126 | 209 | 79.3 | 70.8 | 67.7 | 123 | 206 | 144 | 343 | 118 | 63.6 | 255 | 154 |
| C=C(c1ccc(C(=O)O)cc1)c1cc2c(cc1C)C(C)(C)CCC2(C)C [Bexarotene] + NCC(=O)Nc1ccc(-n2nc(C(F)(F)F)cc2-c2ccc3c(ccc4ccccc43)c2)cc1 [OSU03012] (first compound 2 µM, partner dose 1 µM) | 191 | 81.3 | 156 | 32 | 263 | 214 | 145 | 99 | 205 | 182 | 29.5 | 91.7 | 96.1 | 109 | 92.2 | 298 |
| CS(=O)(=O)CCNCc1ccc(-c2ccc3ncnc(Nc4ccc(OCc5cccc(F)c5)c(Cl)c4)c3c2)o1 [lapatinib] + O=C(CCCCCCC(=O)Nc1ccccc1)NO [vorinostat] (first compound 0.8 µM, partner dose 0.08 µM) | 108 | 84.5 | 44.7 | 118 | 44.4 | 164 | 84.5 | 74.8 | 230 | 51.8 | 58.3 | 112 | 93.8 | 65.8 | 112 | 61.2 |
| Cn1c(=O)n(-c2ccc(C(C)(C)C#N)cc2)c2c3cc(-c4cnc5ccccc5c4)ccc3ncc21 + COC(=O)c1sccc1S(=O)(=O)Nc1ccc(Nc2ccccc2)cc1OC [GSK0660] (first compound 0.004 µM, partner dose 1 µM) | 131 | 43.3 | 69.6 | 88.3 | 223 | 138 | 94.7 | 150 | 45.4 | 147 | 123 | 242 | 92.1 | 86.7 | 113 | 41.1 |
| CNC(=O)c1cc(Oc2ccc(NC(=O)Nc3ccc(Cl)c(C(F)(F)F)c3)cc2)ccn1 [sorafenib] + Cn1cc(/C=C2\C(=O)Nc3cccnc32)c2ccccc21 [GW441756] (first compound 0.4 µM, partner dose 0.4 µM) | 114 | 33.5 | 39.9 | 86.6 | 185 | 57.1 | 42.1 | 97.6 | 187 | 1080 | 21.5 | 184 | 86.7 | 64.9 | 80.7 | 205 |
| CC(C)C[C@H](NC(=O)[C@H](Cc1ccccc1)NC(=O)c1cnccn1)B(O)O [Bortezomib] + O=C(Nc1ccccc1)c1cc([N+](=O)[O-])ccc1Cl [GW9662] (first compound 0.001 µM, partner dose 2 µM) | 204 | 70 | 62.9 | 101 | 172 | 67.9 | 111 | 80.7 | 255 | 134 | 280 | 2340 | 150 | 160 | 239 | 37.9 |
| O=C(O)c1ccc2c(c1)nc(Nc1cccc(Cl)c1)c1ccncc12 + OCCn1cc(-c2cnc3nnn(Cc4ccc5ncccc5c4)c3n2)cn1 [PF04217903] (first compound 0.4 µM, partner dose 1 µM) | 119 | 82.8 | 60.9 | 99 | 147 | 159 | 141 | 42.9 | 110 | 126 | 140 | 226 | 102 | 81.9 | 83.6 | 62.5 |
| Nc1ccn([C@@H]2O[C@H](CO)[C@@H](O)C2(F)F)c(=O)n1 [gemcitabine] + N#Cc1c(O)c2c(-c3ccc(-c4ccccc4O)cc3)csc2[nH]c1=O [A769662] (first compound 0.0004 µM, partner dose 2 µM) | 145 | 81.1 | 25 | 87.5 | 280 | 95.6 | 177 | 64.2 | 205 | 72.3 | 101 | 53.5 | 104 | 81.3 | 143 | 29.4 |
| Nc1ncn([C@H]2C[C@H](O)[C@@H](CO)O2)c(=O)n1 [decitabine] + OCCn1cc(-c2cnc3nnn(Cc4ccc5ncccc5c4)c3n2)cn1 [PF04217903] (first compound 0.1 µM, partner dose 1 µM) | 169 | 60.9 | 147 | 106 | 61.8 | 96.5 | 52.9 | 163 | 54.5 | 63.5 | 208 | 43.8 | 68.1 | 70.4 | 66.6 | 23.1 |
| Cn1c(=O)n(-c2ccc(C(C)(C)C#N)cc2)c2c3cc(-c4cnc5ccccc5c4)ccc3ncc21 + c1cc(-c2cnn3cc(-c4ccc(OCCN5CCCCC5)cc4)cnc23)ccn1 [Dorsomorphin] (first compound 0.004 µM, partner dose 0.4 µM) | 127 | 32.7 | 218 | 30.3 | 368 | 13 | 102 | 73.7 | 129 | 172 | 63 | 107 | 91 | 67.2 | 105 | 145 |
| CC(C)C[C@H](NC(=O)[C@H](Cc1ccccc1)NC(=O)c1cnccn1)B(O)O [Bortezomib] + Oc1nc(-c2ccc(C(F)(F)F)cc2)nc2c1CSCC2 [XAV939] (first compound 0.001 µM, partner dose 2 µM) | 123 | 125 | 241 | 213 | 92.3 | 77 | 58.9 | 1020 | 37.8 | 87 | 75 | 354 | 94.8 | 150 | 108 | 72.6 |
| Nc1ccn([C@@H]2O[C@H](CO)[C@@H](O)C2(F)F)c(=O)n1 [gemcitabine] + CN(C)S(=O)(=O)c1ccc2c(c1)/C(=C/c1cc3c([nH]1)CCCC3)C(=O)N2 [SU6656] (first compound 0.0004 µM, partner dose 0.4 µM) | 199 | 115 | 95.4 | 68.2 | 273 | 54.7 | 174 | 48.8 | 89.5 | 55.2 | 44.1 | 51.3 | 122 | 118 | 110 | 95.3 |
| CN1CCN(c2ccc3nc(-c4c(N)c5c(F)cccc5[nH]c4=O)[nH]c3c2)CC1 [Dovitinib] + CC(C)CCN1c2nc(Nc3cc(F)c(O)c(F)c3)ncc2N(C)C(=O)C1C [BID1870] (first compound 0.1 µM, partner dose 0.2 µM) | 116 | 47.4 | 66.3 | 106 | 54.5 | 164 | 110 | 141 | 40.3 | 131 | 286 | 171 | 107 | 76.4 | 90.6 | 103 |
| Nc1ccn([C@@H]2O[C@H](CO)[C@@H](O)C2(F)F)c(=O)n1 [gemcitabine] + O=S(=O)(c1ccccc1)N(CC(F)(F)F)c1ccc(C(O)(C(F)(F)F)C(F)(F)F)cc1 [T0901317] (first compound 0.0004 µM, partner dose 1.4 µM) | 199 | 22.7 | 78.7 | 172 | 36.2 | 133 | 42.4 | 161 | 41.5 | 122 | 43 | 12 | 143 | 95.5 | 132 | 508 |

Look-ups from above.
Value for Cn1c(=O)n(-c2ccc(C(C)(C)C#N)cc2)c2c3cc(-c4cnc5ccccc5c4)ccc3ncc21 + c1cc(-c2cnn3cc(-c4ccc(OCCN5CCCCC5)cc4)cnc23)ccn1 [Dorsomorphin] (first compound 0.004 µM, partner dose 0.4 µM) under cleaved PARP positive nuclei fraction (SkMel2) [%]: 13
Value for CN1CCN(c2ccc3nc(-c4c(N)c5c(F)cccc5[nH]c4=O)[nH]c3c2)CC1 [Dovitinib] + CC(C)CCN1c2nc(Nc3cc(F)c(O)c(F)c3)ncc2N(C)C(=O)C1C [BID1870] (first compound 0.1 µM, partner dose 0.2 µM) under cleaved PARP positive nuclei fraction (WM115) [%]: 286
